Results: patent publication US20230381316A1 (METHODIST HOSPITAL, published 2023)

By UniProt entry, the sequences of proteins in these tests, tags left out. Residues count along the entry.
UniProt Q04609, 44-750: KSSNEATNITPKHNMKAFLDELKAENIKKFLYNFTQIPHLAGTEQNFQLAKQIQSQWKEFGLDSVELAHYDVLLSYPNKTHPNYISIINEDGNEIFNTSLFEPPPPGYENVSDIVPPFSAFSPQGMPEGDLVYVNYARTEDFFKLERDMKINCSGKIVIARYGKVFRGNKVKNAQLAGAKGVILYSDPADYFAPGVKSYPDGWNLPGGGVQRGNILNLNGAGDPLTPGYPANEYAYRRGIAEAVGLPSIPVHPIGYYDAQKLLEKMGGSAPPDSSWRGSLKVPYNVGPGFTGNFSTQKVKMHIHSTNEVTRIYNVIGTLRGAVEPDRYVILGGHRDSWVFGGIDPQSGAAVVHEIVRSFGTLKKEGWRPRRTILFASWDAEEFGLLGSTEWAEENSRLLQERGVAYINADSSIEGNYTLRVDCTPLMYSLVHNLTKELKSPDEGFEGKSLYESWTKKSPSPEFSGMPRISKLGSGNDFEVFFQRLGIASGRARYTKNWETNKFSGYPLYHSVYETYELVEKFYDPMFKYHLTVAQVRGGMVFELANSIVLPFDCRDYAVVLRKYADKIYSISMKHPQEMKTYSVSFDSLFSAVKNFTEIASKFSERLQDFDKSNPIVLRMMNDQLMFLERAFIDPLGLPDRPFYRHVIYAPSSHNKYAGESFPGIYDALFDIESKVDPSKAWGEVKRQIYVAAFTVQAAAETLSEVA

Target: T1, Fluorescence-labeled PSMA protein (biotin-labelled purified PSMA protein with Alexa Fluor 647 Streptavidin) (human, UniProt Q04609 44-750, biotin label (EZ link Sulfo-NHS-Biotin), incubated with Alexa Fluor 647 Streptavidin)
T1 construct: This is the purified PSMA protein of m9 after labelling; also called fluorescence labeled recombinant PSMA protein; home-made fluorescent probe
Experiment: flow cytometry of CAR T cells with fluorescence labeled recombinant PSMA protein as probe
Excerpt: (A3). In vitro cytotoxicity of PSMA-CAR T cells. Human peripheral blood mononuclear cells (PBMC) were isolated from leukopak following a SOP published by Hanc (HIV/ADIS Network Coordination). T cells including CD4+ and CD8+ T cells were isolated from PBMC with human T cell isolation kit (Miltenyi Biotec). T cells were activated by Dvnabeads human T-Activator CD3/CD28 (ThermoFisher) for 24 hrs, then transduced with lentiviruses expressing PSMA-CARs. Transduced cells were expanded for 8 to 21 days in culture. Flow cytometry was performed to determine the percentage of T cells that express functional CAR. To prepare home-made fluorescent probe, we labeled purified PSMA protein with biotin using EZ link Sulfo-NHS-Biotin (ThermoFisher), then incubated with Alexa Fluor® 647 Streptavidin (BioLegend) to obtain the probe.
For IFNγ induction (FIGS. 14C, 14D)), 4LH-CAR, 7LH-CAR, 5LH-CAR appeared to be the strongest. […] We also tested the in vitro killing on PSMA-positive VCaP cells, PSMA-negative wild type PC3 cells, and PSMA-positive PC3-PSMA stable cells. As anticipated, the PSMA-CAR T cell cytotoxicity IFNγ induction were strictly PSMA-dependent. Moreover, using fluorescence labeled recombinant PSMA protein as probe, flow cytometry analysis was performed on non-transduced and 11 PSMA-CAR T cells.

B1: PSMA(5LH)-CAR, derived from antibody #1377 (VL-linker-VH) (other)
chain: DVVLTQAPLSLPVSLGDQASISCRSSQSLEYSNGNTYLHWYLQKPGQSPELLIYTVSNRFSGVPDRFSGSGSGTDFTLKIHRVEAEDLGVYFCSQSTHVPTFGGGTKLEIKRGGGGSGGGGSGGGGSVQLQQPGAALVRPGASVRLSCKASGYSFTYYWMNWVMQRPGQGLEWIGMIHPSDSETRLSQKFRDKATLTVDKSSSTVYMQLNSPTSDDSAVYYCARDGNFPYYALDYWGQGTSVTVSSTTTPAPRPPTPAPTIASQPLSLRPEACRPAAGGAVHTRGLDFACDIYIWAPLAGTCGVLLLSLVITLYCKRGRKKLLYIFKQPFMRPVQTTQEEDGCSCRFPEEEEGGCELRVKFSRSADAPAYKQGQNQLYNELNLGRREEYDVLDKRRGRDPEMGGKPRRKNPQEGLYNELQKDKMAEAYSEIGMKGERRRGKGHDGLYQGLSTATKDTYDALHMQALPPR
notes: Chimeric antigen receptor on transduced human T cells
percentage of CAR T cells positive for PSMA binding: 53%
